Experimental data from PubChem BioAssay AID743255 (National Center for Advancing Translational Sciences (NCATS), 2014).
Among all 390,000 compounds or so, about 910 (0.23%) were called active. The shares of active, inactive and inconclusive entries below differ from those in the screen. Calls come from the whole dose curve; as a rule, active = well fitted inhibition curve with a large enough effect; inconclusive = small, poorly fitted or top-dose-only effect; inactive = no such curve, though single readings can be large or run the other way. A potency beside an inconclusive call is a rough fit, not a confirmed value.

Amino acid sequences for entries named in this document (tags omitted). A change or cut given only in a name is not applied to a line headed by its entry.
UniProt O94782: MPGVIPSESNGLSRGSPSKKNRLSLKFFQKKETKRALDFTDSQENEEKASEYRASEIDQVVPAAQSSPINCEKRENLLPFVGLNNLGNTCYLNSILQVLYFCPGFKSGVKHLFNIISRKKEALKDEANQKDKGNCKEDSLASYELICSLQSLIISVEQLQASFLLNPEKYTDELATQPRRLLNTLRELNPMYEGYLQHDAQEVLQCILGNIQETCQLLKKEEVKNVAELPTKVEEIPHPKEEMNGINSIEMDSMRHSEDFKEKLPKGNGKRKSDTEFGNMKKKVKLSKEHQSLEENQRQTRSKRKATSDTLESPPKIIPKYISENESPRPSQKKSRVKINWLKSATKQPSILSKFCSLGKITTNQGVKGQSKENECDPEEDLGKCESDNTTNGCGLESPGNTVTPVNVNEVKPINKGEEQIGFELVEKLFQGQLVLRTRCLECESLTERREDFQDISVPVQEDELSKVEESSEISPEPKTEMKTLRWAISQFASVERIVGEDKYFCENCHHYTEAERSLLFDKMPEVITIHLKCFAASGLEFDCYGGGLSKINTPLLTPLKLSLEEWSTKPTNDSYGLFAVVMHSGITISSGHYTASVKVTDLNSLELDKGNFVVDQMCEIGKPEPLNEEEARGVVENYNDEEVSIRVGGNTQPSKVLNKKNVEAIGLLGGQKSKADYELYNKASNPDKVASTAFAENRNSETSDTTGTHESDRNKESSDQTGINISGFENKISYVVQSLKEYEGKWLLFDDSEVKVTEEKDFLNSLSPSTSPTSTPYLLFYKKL

These compounds were tested against Ubiquitin carboxyl-terminal hydrolase 1 (Homo sapiens) (UniProt O94782) (assay: Inhibitors of USP1/UAF1: Primary Screen). Details: recombinant USP1/UAF1, Ub-Rhodamine cleavage fluorescence; series mostly up to 57.1 µM.
Method in brief: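 High-throughput fluorogenic screen: 1nM USP1/UAF1 complex, Ub-Rho substrate 150nM final, 50mM HEPES pH 7.8 with 0.5mM EDTA, 0.1 mg/ml BSA, 1mM TCEP and 0.01% Tween-20.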
Note: nearly all actives have a fitted effect of over 60% in size.
Potency is the fitted concentration of half-maximal effect.

Potency, inconclusive:
CCN(CC)C(=O)c1sc2c(c1C)c(=O)n(-c1ccc(C)c(C)c1)c(=O)n2Cc1cc(=O)n2c(C)cccc2n1 44.7 µM [inhibitor, partial curve, poor fit]
COc1ccc2c(c1)-c1nc(NC(=O)c3ccccc3F)sc1CC2 112 µM [inhibitor, partial curve]
O=C(O)CCCCCN1C(=O)/C(=C/c2cn(-c3ccccc3)nc2-c2cccs2)SC1=S 31.6 µM [inhibitor, single point]
COc1ccc([C@H]2CC(=O)C=C(c3c(C)cc(C)cc3C)C2)cc1 50.1 µM [inhibitor, single point]
CCN(CC(=O)NCc1ccc(Cl)cc1)C(=O)/C=C/c1cc(OC)c(OC)c(OC)c1 1.12 µM [inhibitor, partial curve]
Cc1cccc(N(C)C(=O)CN(C)S(=O)(=O)c2ccc3[nH]c4c(c3c2)CCCC4)c1 50.1 µM [inhibitor, partial curve, poor fit]
O=c1cc(-c2ccccc2)nc2cc(-c3ccc(F)cc3)[nH]n12 31.6 µM [inhibitor, single point]
O=[N+]([O-])c1cc(C(F)(F)F)ccc1NCCCN1CCOCC1 44.7 µM [inhibitor, partial curve, poor fit]
Cc1ccc(Cn2cc(/C=C(/C#N)C(=O)Nc3cccc(Cl)c3)c3ccccc32)cc1 50.1 µM [inhibitor, partial curve, poor fit]
O=C(c1ccccc1)n1nc(-c2ccco2)nc1NCc1cccs1 8.91 µM [inhibitor, partial curve, poor fit]
CCc1ccc2nc(N(CCCN(C)C)C(=O)c3ccc(S(=O)(=O)N(C)C4CCCCC4)cc3)sc2c1 44.7 µM [inhibitor, single point]
C#CCOCCOCCOCCNc1nc(N2CCN(C(=O)CCCCCCCCCCNC(=O)[C@H](CCCCN)n3cc(C[C@@H](C)CC)nn3)CC2)nc(N2CCN(C(=O)CCCCCCCCCCNC(=O)[C@H](CCCN=C(N)N)n3cc(C[C@@H](C)CC)nn3)CC2)n1 50.1 µM [inhibitor, partial curve, poor fit]
O=C(Nc1cccc(Cl)c1)c1nc[nH]c1C(=O)NCc1ccccc1 35.5 µM [inhibitor, partial curve, poor fit]
CCCn1c(=O)c2sccc2n2c(CCCC(=O)Nc3ccccc3OCC)nnc12 7.94 µM [inhibitor, full curve]
Cc1ccccc1C(=O)Nc1nnc(S(=O)(=O)N(C)Cc2ccc(Cl)cc2)s1 0.282 µM [inhibitor, full curve]
O=S(=O)(N/N=C\c1cn(-c2ccccc2)nc1-c1ccccc1)c1ccccc1 0.708 µM [inhibitor, full curve, poor fit]
CCOc1ccc(C(=O)NCC(=O)N2CCN(c3ccccc3O)CC2)cc1 5.62 µM [inhibitor, partial curve]
Cc1ccc(CNC(=O)c2nc(-c3ccc(Cl)cc3)n3c2CCCCC3)cc1 7.94 µM [inhibitor, full curve, poor fit]
Cc1cc(-c2n[nH]c(=S)n2/N=C/C=C/c2ccco2)n[nH]1 39.8 µM [inhibitor, single point]
CCOCC(=O)Nc1ncc(S(=O)(=O)c2ccc([N+](=O)[O-])cc2)s1 4.47 µM [inhibitor, partial curve]
COc1ccc(-c2ccnc3nc(N4CCN(c5ccccc5)CC4)nn23)cc1 39.8 µM [inhibitor, partial curve]
COc1cc(NS(=O)(=O)c2ccc(N/C=C(\C=O)c3nc4cc(Cl)ccc4o3)cc2)nc(OC)n1 35.5 µM [inhibitor, partial curve]
CCOC(=O)c1ccc(NC(=O)c2c(NCc3sccc3C)sc3c2CCCCC3)cc1 44.7 µM [inhibitor, partial curve]
Cc1ccc(NS(=O)(=O)c2cc([N+](=O)[O-])ccc2NNC(=S)Nc2cccc(Cl)c2)c(C)c1 31.6 µM [inhibitor, partial curve]
O=C(CCc1nc2ccccc2[nH]1)NC1CCCCC1 2.51 µM [inhibitor, partial curve, poor fit]
COc1cc(OC)cc(-c2c(-c3cccs3)c3cc(-c4ccc5c(c4)OCCO5)ccc3n2C)c1 2.82 µM [inhibitor, full curve, poor fit]
Cc1cccc(C(=O)OCC(=O)Nc2nnc(-c3ccccc3)o2)c1O 8.91 µM [inhibitor, full curve, poor fit]
COC(=O)c1ccc(NC(=O)Cn2nc(C(=O)Nc3ccc(C)cc3)ccc2=O)cc1 0.708 µM [inhibitor, full curve, poor fit]
CCc1ccc(CN(C)Cc2c(C(=O)N3CCOCC3)nc3c(C)cccn23)nc1 0.282 µM [inhibitor, full curve, poor fit]
Cc1ccc(C(=O)Nc2ccc(C(=O)OCc3cc(=O)n4ccsc4n3)cc2)cc1 0.282 µM [inhibitor, full curve, poor fit]
CCCCOc1ccc(C2OC34CCCCC3C(C#N)(C#N)C2(C#N)C(=N)O4)cc1 (configuration not stated) 35.5 µM [inhibitor, partial curve]
Cc1ccc(Cl)cc1NC(=O)COCc1cc(-c2ccco2)on1 0.708 µM [inhibitor, full curve]
C=CCNC(=O)c1onc(CSc2nc3ccccc3[nH]2)c1C(=O)NCC=C 14.1 µM [inhibitor, partial curve]
COC(=O)C(C(C)C)N(Cc1cc(OC)cc(OC)c1)S(=O)(=O)CCl (configuration not stated) 8.91 µM [inhibitor, partial curve]
CCc1ccc(C2CC(=O)c3c([nH]c(C(=O)OC4CCCC4)c3C)C2)cc1 (configuration not stated) 7.08 µM [inhibitor, full curve, poor fit]
CCOC(=O)C(C)(C)n1nnc(-c2ccc([N+](=O)[O-])cc2)n1 31.6 µM [inhibitor, single point]
CC(C)c1ccccc1NC(=O)C1C2C=CC(C2)C1C(=O)O (configuration not stated) 35.5 µM [inhibitor, partial curve]
COc1cc(C(C)=O)ccc1OCC(=O)NCc1ccccc1CN1CCCC1 0.316 µM [inhibitor, full curve, poor fit]
COc1ccc(-c2[nH]c(-c3ccc(Cl)cc3)nc2SCC(=O)NCC2CCCO2)cc1 (configuration not stated) 22.4 µM [inhibitor, partial curve, poor fit]
Cc1ccc(-c2ccc(=O)n(CC(=O)NCCc3ccccc3)n2)cc1 0.398 µM [inhibitor, full curve, poor fit]
COc1ccc(Nc2nc(N)nc(CN3CCC(Cc4ccccc4)CC3)n2)cc1 7.94 µM [inhibitor, partial curve, poor fit]
C#CCOC(=O)C1C2C=CC(C2)C1C(=O)O (configuration not stated) 0.355 µM [inhibitor, full curve, poor fit]
COc1ccc([C@H]2/C=C\CN(C(=O)CC(C)(C)C)[C@@H](C)C(=O)N2Cc2ccc(F)cc2)cc1 39.8 µM [inhibitor, partial curve]
CCOCCCNC(=O)c1ccc(-n2c(-c3ccccc3)cc3c2CCC(C)C3)cc1 (configuration not stated) 0.891 µM [inhibitor, full curve, poor fit]

Potency, inactive:
CC(=O)C(C(C)=O)C(NC(=O)c1cccnc1)(C(F)(F)F)C(F)(F)F
CC(C)(C)C(=O)NCc1ccc(C(=O)CSc2nnc(C3CC3)n2C2CC2)s1
CCOC(=O)c1sc(=S)[nH]c1C
COc1ccc(/C=N/NC(=O)c2nc(-c3ccccc3)cc(-c3ccccc3)n2)cc1OC
CCC(=O)Nc1ccc(-c2nn3c(C)nnc3s2)cc1C
Cc1ccc(O)c(C(=O)c2cc(C#N)c(=O)n(-c3c(C)n(C)n(-c4ccccc4)c3=O)c2)c1
CC(C)C(NC(=O)C1CCC(C(C)(C)C)CC1)C(=O)NCCc1ccc(S(N)(=O)=O)cc1 (configuration not stated)
N#C/C(=C(/O)c1ccc([N+](=O)[O-])o1)c1nc2ccccc2[nH]1
COc1ccc(-n2c(CN3CCN(c4ccc(F)cc4)CC3)nc3ccc([N+](=O)[O-])cc3c2=O)c(OC)c1
O=C(Nc1ccc(F)cc1)c1nn(-c2ccccc2)c(=O)cc1Cl
Brc1cc2ccccc2[n+](Cc2ccccc2)c1
Cc1ccc(C(=O)NC(=S)Nc2ccc(CN3CCCCC3)cc2)c(C)c1
C[C@H](CO)N1C[C@H](C)[C@@H](CN(C)S(=O)(=O)c2ccc3c(c2)OCCCO3)OCc2cnnn2CCCC1=O
C=CCNc1nc(C(=O)OCC(=O)c2ccc(F)cc2)cs1
CC(=O)C1=C(O)C(=O)N(Cc2ccco2)C1c1ccccc1 (configuration not stated)
Cc1cc(C)c2c(CC(=O)Nc3ccc(S(=O)(=O)Nc4nc(C)cc(C)n4)cc3)coc2c1
O=C(O)C(O)c1ccco1 (configuration not stated)
Cc1ccc2cccc(OCCCOc3ccccc3F)c2n1

6 entries out of the list, arranged by molar mass, smallest number first:
Potency, inactive:
CCC(=O)Nc1ccc(-c2nn3c(C)nnc3s2)cc1C
O=C(Nc1ccc(F)cc1)c1nn(-c2ccccc2)c(=O)cc1Cl
Cc1ccc(C(=O)NC(=S)Nc2ccc(CN3CCCCC3)cc2)c(C)c1
Cc1ccc(O)c(C(=O)c2cc(C#N)c(=O)n(-c3c(C)n(C)n(-c4ccccc4)c3=O)c2)c1
Cc1cc(C)c2c(CC(=O)Nc3ccc(S(=O)(=O)Nc4nc(C)cc(C)n4)cc3)coc2c1
COc1ccc(-n2c(CN3CCN(c4ccc(F)cc4)CC3)nc3ccc([N+](=O)[O-])cc3c2=O)c(OC)c1
